# PubChem BioAssay AID1053208 | Peter MacCallum Cancer Centre | 2014
# Assay: 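Genes whose silencing cuts survival of bone tumour cells only with doxorubicin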 (primary screen)
# System: mouse osteosarcoma cells, early-passage culture from an engineered mouse model of fibroblastic bone tumour
# Knock-down reagent: siRNA pool against mouse genes, 40 nM
# Duration: about 120 h (48 h before drug, then 72 h with drug)
# Conditions: doxorubicin 100 nM for 72 h, roughly 30-40% inhibitory dose
# Detection: 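Luminescent ATP signal taken as viability with or without 100 nM doxorubicin for 72 h; mean of two wells set against non-targeting siRNA and turned into robust z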
# Reading the numbers: viability z-score with doxorubicin and doxorubicin viability vs non-targeting: higher = more viable cells under doxorubicin; viability z-score without drug: higher = more viable cells with knock-down alone; z-score of drug to no-drug ratio: higher = less drug sensitisation by knock-down
# Hit rule: 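a pool counts as active when its viability z-score with doxorubicin is -2 or below and its z-score without drug lies between -2 and 2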
# The whole screen tested about 17,000 reagents; this is an unselected part. Of all reagents, 788 (4.7%) are marked active. 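Calls rest on z-score classes alone; an extra cut-off of viability at most 70% of control was not applied to them.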 The numbers tell different reagents against one gene apart. Some reagents were tested in more than one well and are listed for each.
gene symbol,pool no.,combined z-score class,viability z-score with doxorubicin,viability z-score without drug,z-score of drug to no-drug ratio,doxorubicin viability vs non-targeting,Outcome
Edn3,1,no change with or without drug,-1.01,-0.51,-0.67,0.85,inactive
Igfbp6,1,no change with or without drug,-1.01,-0.84,-0.45,0.85,inactive
Csnk2b,1,no change with or without drug,1.12,-0.51,1.69,1.04,inactive
Nolc1,1,low cell count without drug only,0.22,-2.53,2.47,0.96,inactive
B4galt3,1,no change with or without drug,0.11,0.17,0.11,0.95,inactive
Or8b12b,1,no change with or without drug,-1.35,-0.17,-1.24,0.82,inactive
Impact,1,no change with or without drug,0,-0.17,0.22,0.94,inactive
Elapor2,1,no change with or without drug,-1.35,-1.69,-0.22,0.82,inactive
Lrrn1,1,no change with or without drug,-1.8,0.34,-2.02,0.78,inactive
Acat2,1,no change with or without drug,-0.22,-1.18,0.79,0.92,inactive
Sh3pxd2a,1,no change with or without drug,-0.45,0,-0.34,0.9,inactive
Sh3pxd2a,2,no change with or without drug,0.22,-0.51,0.67,0.96,inactive
Reg3a,1,no change with or without drug,0.22,-0.51,0.67,0.96,inactive
Spa17,1,high cell count without drug only,1.46,2.53,-0.11,1.07,inactive
Echdc2,1,no change with or without drug,1.01,1.85,-0.11,1.03,inactive
Or52z12,1,no change with or without drug,-0.45,-1.18,0.45,0.9,inactive
Dnmt3b,1,no change with or without drug,1.12,1.18,0.45,1.04,inactive
Thoc7,1,low cell count with and without drug,-3.26,-3.71,-1.01,0.65,inactive
Thoc7,2,no change with or without drug,0.67,0.84,0.22,1,inactive
Tceal1,1,no change with or without drug,1.12,0.17,1.12,1.04,inactive
Gm839,1,no change with or without drug,1.24,-0.17,1.57,1.05,inactive
Zfp809,1,no change with or without drug,-0.11,-0.17,0.11,0.93,inactive
Plekha8,1,no change with or without drug,-0.22,0.17,-0.22,0.92,inactive
Hs2st1,1,high cell count with doxorubicin only,2.25,1.52,1.35,1.14,inactive
Ctbs,1,no change with or without drug,-1.8,-0.51,-1.46,0.78,inactive
Mnd1,1,no change with or without drug,-0.9,-1.18,0,0.86,inactive
Tspyl4,1,no change with or without drug,0.9,0.51,0.67,1.02,inactive

A few values from above:
Tceal1, z-score of drug to no-drug ratio = 1.12
Csnk2b, z-score of drug to no-drug ratio → 1.69
For “viability z-score without drug”, Lrrn1 shows 0.34
For “viability z-score with doxorubicin”, Edn3 reads -1.01
Under “viability z-score with doxorubicin”, Nolc1 reads 0.22
Elapor2, Outcome → inactive

Continued:
gene symbol,pool no.,combined z-score class,viability z-score with doxorubicin,viability z-score without drug,z-score of drug to no-drug ratio,doxorubicin viability vs non-targeting,Outcome
Appl1,1,no change with or without drug,-0.79,0.34,-0.9,0.87,inactive
Appl1,1,no change with or without drug,0.56,0.67,0.22,0.99,inactive
Dhrs1,1,no change with or without drug,-0.67,1.01,-1.24,0.88,inactive
BC035947,1,no change with or without drug,1.12,0.17,1.12,1.04,inactive
Tmprss11g,1,no change with or without drug,-0.34,1.01,-0.9,0.91,inactive
Ccr5,1,no change with or without drug,-0.79,1.01,-1.35,0.87,inactive
Galr3,1,no change with or without drug,0.45,-0.17,0.67,0.98,inactive
Cd151,1,no change with or without drug,1.69,1.18,1.01,1.09,inactive
Vac14,1,no change with or without drug,1.12,1.52,0.22,1.04,inactive
Zfp706,1,no change with or without drug,0.34,-0.17,0.56,0.97,inactive
Nkx2-1,1,no change with or without drug,-0.56,-0.51,-0.11,0.89,inactive
Spata3,1,high cell count without drug only,1.35,2.19,0,1.06,inactive
Zfp52,1,no change with or without drug,-0.9,0.17,-0.9,0.86,inactive
Hmga1,1,no change with or without drug,1.01,-0.84,1.8,1.03,inactive
Vmn1r148,1,no change with or without drug,-1.8,-1.85,-0.56,0.78,inactive
Hdlbp,1,no change with or without drug,0.22,0.51,0,0.96,inactive
H6pd,1,no change with or without drug,0.45,-0.51,1.01,0.98,inactive
Hsd17b14,1,no change with or without drug,-1.24,-0.51,-0.9,0.83,inactive
Obsl1,1,no change with or without drug,-0.56,-1.01,0.22,0.89,inactive
Inpp5f,1,no change with or without drug,0.9,-0.84,1.69,1.02,inactive
Gpx8,1,no change with or without drug,-0.67,0.67,-1.01,0.88,inactive
Or9s13,1,low cell count with and without drug,-3.93,-2.87,-2.47,0.59,inactive
Hapln2,1,no change with or without drug,0.67,1.18,0,1,inactive
